Assay results published in PubChem BioAssay AID328 (DTP/NCI, 2004).
The list does not hold the whole screen: it is rich in T/C values a quarter to a half above the control, in often repeated tests (any T/C) and in doses without a T/C. Further doses and runs are listed elsewhere. T/C: endpoint of the treated group in % of that of the vehicle group. Some doses have a count of surviving animals in place of a T/C: the source holds a T/C of zero for them, seemingly a mark for toxic or unscored doses. Some doses without a T/C left all or most animals alive at the check, yet need not have been tolerated: survival well below the control is almost never listed, so the zero probably covers shortened survival too. Survivors were counted at the toxicity check, usually on the fifth day, unless a day is given; later deaths do not show. Schedule codes are those of the source, read here as Q, the interval in days (D) or hours (H), X, the number of doses. Some structures stand for samples that the source files as different forms (salt, stereo form or complex); doses refer to the form tested. Where survival is the endpoint, this PubChem deposit counts one and a half times the control or more as active, and values a quarter to a half above the control carry no call in these data; other NCI protocols may use other cut-offs.

System: BDF1 mice, P388 leukemia ip, median survival T/C
Test: NCI In Vivo Anticancer Drug Screen. Data for tumor model P388 Leukemia (intraperitoneal) in B6D2F1 (BDF1) mice
Details: T/C endpoint: median survival time, higher T/C = longer survival
Outline: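 Reported as T/C, where T is the survival measurement in dosed animals and C the same measurement in vehicle controls.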

[1] = dose: 50.0 mg/kg/injection, schedule: Q01DX009 (ip), vehicle: Klucel (hydroxypropylcellulose) (HPC)
[2] = dose: 200.0 mg/kg/injection, schedule: Q01DX001 (ip), vehicle: Klucel (hydroxypropylcellulose) (HPC)
[3] = dose: 400.0 mg/kg/injection, schedule: Q01DX009 (ip), vehicle: saline with Tween-80

With `CCOC(=O)C1C(=O)C(CN(CCCl)CCCl)C(=O)C(C(=O)OCC)C1c1ccc(O)cc1` (centres undefined) as the compound, how does the T/C (dose: 40.0 mg/kg/injection, schedule: Q04DX003 (ip), vehicle: Klucel (hydroxypropylcellulose) (HPC)) read?
The T/C was 135 % of control.

And the survivor count [1]?
The survivor count was 6 of 6.

What about the survivor count (dose: 100.0 mg/kg/injection, schedule: Q01DX009 (ip), vehicle: Klucel (hydroxypropylcellulose) (HPC)) of the same compound?
The survivor count was 6 of 6.

What about the T/C (dose: 100.0 mg/kg/injection, schedule: Q04DX003 (ip), vehicle: Klucel (hydroxypropylcellulose) (HPC)) of the same compound?
The T/C was 145 % of control.

What about the survivor count (dose: 100.0 mg/kg/injection, schedule: Q04DX003 (ip), vehicle: saline with Tween-80) of the same compound?
The survivor count was 5 of 6.

And the survivor count (dose: 200.0 mg/kg/injection, schedule: Q01DX009 (ip), vehicle: Klucel (hydroxypropylcellulose) (HPC))?
The survivor count was 0 of 6.

And the survivor count (dose: 200.0 mg/kg/injection, schedule: Q04DX003 (ip), vehicle: saline with Tween-80)?
Its survivor count is 5 of 6.

And the survivor count (dose: 400.0 mg/kg/injection, schedule: Q01DX009 (ip), vehicle: Klucel (hydroxypropylcellulose) (HPC))?
The survivor count was 0 of 6.

And the survivor count (dose: 400.0 mg/kg/injection, schedule: Q04DX003 (ip), vehicle: saline with Tween-80)?
Its survivor count is 5 of 6.

For `Nc1ncnc2c1ncn2C1OC(COP(=O)(O)O)C(O)C1O` (centres undefined), which T/C (dose: 18.8 mg/kg/injection, schedule: Q03HX024 (ip), vehicle: saline) is on record?
Its T/C is 127 % of control.

What about the T/C (dose: 37.5 mg/kg/injection, schedule: Q03HX016 (ip), vehicle: saline) of the same compound?
Its T/C is 131 % of control.

What about the T/C (dose: 37.5 mg/kg/injection, schedule: Q03HX024 (ip), vehicle: saline) of the same compound?
Its T/C is 131 % of control.

What about the T/C (dose: 75.0 mg/kg/injection, schedule: Q03HX016 (ip), vehicle: saline) of the same compound?
The T/C was 145 % of control.

What about the T/C (dose: 75.0 mg/kg/injection, schedule: Q03HX024 (ip), vehicle: saline) of the same compound?
The T/C was 148 % of control.

With `CCc1c(Cl)c(C)cc(O)c1Cl` as the compound, how does the T/C (dose: 25.0 mg/kg/injection, schedule: Q01DX009 (ip), vehicle: gum acacia) read?
Its T/C is 133 % of control.

And the T/C (dose: 37.0 mg/kg/injection, schedule: Q01DX009 (ip), vehicle: gum acacia)?
The T/C was 129 % of control.

And the survivor count (dose: 100.0 mg/kg/injection, schedule: Q01DX009 (ip), vehicle: gum acacia)?
Its survivor count is 5 of 6.

For `CCOC(=O)Oc1ccc(/C=N/NC(N)=S)nc1`, which T/C (dose: 12.5 mg/kg/injection, schedule: Q01DX009 (ip), vehicle: saline with Tween-80) is on record?
The T/C was 142 % of control.

And the T/C (dose: 25.0 mg/kg/injection, schedule: Q01DX009 (ip), vehicle: saline with Tween-80)?
Its T/C is 149 % of control.

For `COc1cc(C=Nc2ccc(C(=O)O)c(O)c2)ccc1N(CCCl)CCCl`, which survivor count (dose: 18.0 mg/kg/injection, schedule: Q01DX009 (ip), vehicle: Klucel (hydroxypropylcellulose) (HPC)) is on record?
Its survivor count is 6 of 6.

What about the T/C (dose: 25.0 mg/kg/injection, schedule: Q01DX009 (ip), vehicle: Klucel (hydroxypropylcellulose) (HPC)) of the same compound?
The T/C was 140 % of control.

What about the survivor count [1] of the same compound?
The survivor count was 5 of 6.

And the survivor count (dose: 75.0 mg/kg/injection, schedule: Q04DX003 (ip), vehicle: Klucel (hydroxypropylcellulose) (HPC))?
The survivor count was 3 of 6.

What about the survivor count (dose: 115.0 mg/kg/injection, schedule: Q04DX003 (ip), vehicle: Klucel (hydroxypropylcellulose) (HPC)) of the same compound?
Its survivor count is 1 of 6.

What about the survivor count (dose: 170.0 mg/kg/injection, schedule: Q04DX003 (ip), vehicle: Klucel (hydroxypropylcellulose) (HPC)) of the same compound?
The survivor count was 0 of 6.

What does the source list for `CCCCCCCCCCCCNCCCCCCCCCCCC`?
survivor count (dose: 4.0 mg/kg/injection, schedule: Q01DX010 (ip), vehicle: water): 6 of 6; survivor count (dose: 28.0 mg/kg/injection, schedule: Q01DX009 (ip), vehicle: Klucel (hydroxypropylcellulose) (HPC)): 4 of 6; survivor count (dose: 40.0 mg/kg/injection, schedule: Q01DX009 (ip), vehicle: Klucel (hydroxypropylcellulose) (HPC)): 0 of 6; survivor count (dose: 130.0 mg/kg/injection, schedule: Q01DX001 (ip), vehicle: Klucel (hydroxypropylcellulose) (HPC)): 1 of 6; T/C [2]: 133 % of control; survivor count [2]: 2 of 6; survivor count (dose: 300.0 mg/kg/injection, schedule: Q01DX001 (ip), vehicle: Klucel (hydroxypropylcellulose) (HPC)): 1 of 6

How did the survivor count (dose: 10.0 mg/kg/injection, schedule: Q01DX009 (ip), vehicle: saline) turn out when `O=[N+]([O-])c1cccc2nonc12` was run?
Its survivor count is 1 of 7.

And the survivor count (dose: 20.0 mg/kg/injection, schedule: Q01DX009 (ip), vehicle: saline)?
The survivor count was 0 of 7.

What about the survivor count (dose: 40.0 mg/kg/injection, schedule: Q01DX009 (ip), vehicle: saline) of the same compound?
The survivor count was 0 of 7.

With `Cn1cnc([N+](=O)[O-])c1[Se]c1ncnc2c1ccn2C1OC(CO)C(O)C1O` (centres undefined) as the compound, how does the survivor count (dose: 50.0 mg/kg/injection, schedule: Q01DX009 (ip), vehicle: saline) read?
The survivor count was 3 of 6.

What about the survivor count (dose: 100.0 mg/kg/injection, schedule: Q01DX009 (ip), vehicle: saline) of the same compound?
Its survivor count is 2 of 6.

And the survivor count (dose: 200.0 mg/kg/injection, schedule: Q01DX009 (ip), vehicle: saline)?
The survivor count was 1 of 6.

What about the survivor count (dose: 400.0 mg/kg/injection, schedule: Q04DX003 (ip), vehicle: saline) of the same compound?
The survivor count was 0 of 6.

Which survivor count (dose: 200.0 mg/kg/injection, schedule: Q01DX001 (ip), vehicle: saline) does the source give for `CC[N+](C)(C)CC` here?
Its survivor count is 0 of 6.

What about the survivor count (dose: 400.0 mg/kg/injection, schedule: Q01DX001 (ip), vehicle: saline) of the same compound?
The survivor count was 0 of 6.

With `C[As](C)(=S)[As](C)(C)=S` as the compound, how does the survivor count (dose: 50.0 mg/kg/injection, schedule: Q01DX009 (ip), vehicle: saline with Tween-80) read?
The survivor count was 2 of 6.

`CCOC(=O)C(I)CC` (centres undefined) was tested. Which survivor count (dose: 400.0 mg/kg/injection, schedule: Q01DX009 (ip), vehicle: water) did it give?
The survivor count was 0 of 6.

With `CC(C)(C)C1CCC(C#N)(N=Nc2ccccc2)CC1` (centres undefined) as the compound, how does the survivor count (dose: 200.0 mg/kg/injection, schedule: Q01DX005 (ip), vehicle: saline with Tween-80) read?
The survivor count was 0 of 6.

How did the T/C (dose: 12.5 mg/kg/injection, schedule: Q01DX009 (ip), vehicle: saline) turn out when `Cn1/c2cc/c1=C(\c1ccc(S(=O)(=O)O)cc1)c1ccc([n-]1)/C(c1ccc(S(=O)(=O)O)cc1)=c1/cc/c([nH]1)=C(\c1ccc(S(=O)(=O)O)cc1)c1ccc([n-]1)/C=2c1ccc(S(=O)(=O)O)cc1.O.O=S(=O)(O)C(F)(F)F.[Cu+2]` was run?
Its T/C is 126 % of control.

What about the T/C (dose: 25.0 mg/kg/injection, schedule: Q01DX009 (ip), vehicle: saline) of the same compound?
Its T/C is 126 % of control.

With `COc1ccc(N2C(=O)CC(Sc3ccccc3N)C2=O)cc1` (centres undefined) as the compound, how does the survivor count [2] read?
Its survivor count is 6 of 6.

Which results are given for `COc1ccc(CN(C)CCN(C)CCN(C)Cc2ccc(OC)cc2)cc1`?
survivor count (dose: 200.0 mg/kg/injection, schedule: Q04DX003 (ip), vehicle: water): 0 of 6; survivor count (dose: 400.0 mg/kg/injection, schedule: Q04DX003 (ip), vehicle: water): 0 of 6

With `N#CCCN(C(=S)Nc1ccc(Cl)c(Cl)c1)C1CCCCC1` as the compound, how does the T/C [3] read?
Its T/C is 144 % of control.

For `ClCCN(CCCl)c1ccc(/C=C\c2ccnc3ccccc23)cc1`, which survivor count [3] is on record?
Its survivor count is 5 of 6.

Which T/C (dose: 2.5 mg/kg/injection, schedule: Q01DX009 (ip), vehicle: sodium bicarbonate) does the source give for `COc1cc(NCc2ccc3nc(N)nc(N)c3c2C)cc(OC)c1OC` here?
The T/C was 148 % of control.

What about the T/C (dose: 25.0 mg/kg/injection, schedule: Q01DX009 (oral), vehicle: sodium bicarbonate) of the same compound?
The T/C was 130 % of control.

What about the survivor count (dose: 80.0 mg/kg/injection, schedule: Q01DX009 (ip), vehicle: sodium bicarbonate) of the same compound?
Its survivor count is 6 of 6.

And the survivor count (dose: 100.0 mg/kg/injection, schedule: Q01DX009 (ip), vehicle: saline with Tween-80)?
Its survivor count is 10 of 10.

What about the survivor count (dose: 200.0 mg/kg/injection, schedule: Q01DX009 (oral), vehicle: sodium bicarbonate) of the same compound?
Its survivor count is 6 of 6.

And the survivor count (dose: 400.0 mg/kg/injection, schedule: Q01DX009 (oral), vehicle: sodium bicarbonate)?
Its survivor count is 6 of 6.

Which survivor count (dose: 12.5 mg/kg/injection, schedule: Q04DX003 (ip), vehicle: Klucel (hydroxypropylcellulose) (HPC)) does the source give for `CN(C)C1CCCCC1` here?
Its survivor count is 6 of 6.

How did the survivor count (dose: 200.0 mg/kg/injection, schedule: Q01DX009 (ip), vehicle: saline with Tween-80) turn out when `CCCCCCCCSC(=S)SCC(=O)O` was run?
The survivor count was 2 of 6.
